Results deposited as PubChem BioAssay AID743454 (Peter MacCallum Cancer Centre, 2014)
Purpose: 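Genes whose loss kills vorinostat-resistant colon cancer cells under vorinostat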 (primary screen). System: human HCT116-VR colon cancer cells, selected for vorinostat resistance. Reagent: siRNA pool against human genes, 40 nM siRNA pool. Duration: vorinostat for 24 h, read-out about 72 h after transfection. Treatment: vorinostat at 2.5 µM final. Read-out: 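Two measures, CellTiter-Fluor viability and luminescent caspase 3/7 activity, each as fold change against same-plate mock wells, mean of duplicates, then screen-wide robust z-score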. Scale: viability robust z-score: higher = more viable cells than screen typical; caspase robust z-score: higher = more caspase 3/7 activity than screen typical. Hit rule: 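a knock-down is a hit when classed RV1 or RV2 for lowered viability, or CA1 or CA2 for caspase activation; those lethal without drug were dropped; hits were retested singly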.
The deposit covers about 18,000 reagents; this is an unselected part. 450 of them (2.5%) count as active. 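Single biological run; no consistent viability z cut-off exists, so the class columns, not z-scores, define the calls.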

target	viability hit class	caspase hit class	viability robust z-score	caspase robust z-score	call
NCK2 (NCK adaptor protein 2)	no change	no change	-0.44	1.86	inactive
SEC61A2 (SEC61 translocon subunit alpha 2)	no change	no change	-0.9	-0.08	inactive
LDHA (lactate dehydrogenase A)	no change	no change	-0.11	-1.29	inactive
PIAS2 (protein inhibitor of activated STAT 2)	no change	no change	0.29	-0.94	inactive
BEST1 (bestrophin 1)	no change	no change	-0.16	-0.54	inactive
OR12D3 (olfactory receptor family 12 subfamily D member 3)	no change	no change	-0.66	-1.36	inactive
TBX20 (T-box transcription factor 20)	no change	no change	0.38	0.6	inactive
DOK4 (docking protein 4)	no change	no change	0.3	-0.24	inactive
FNTB (farnesyltransferase, CAAX box, subunit beta)	no change	no change	-0.77	-0.08	inactive
DYNC2H1 (dynein cytoplasmic 2 heavy chain 1)	no change	no change	-0.77	-0.91	inactive
SPPL2B (signal peptide peptidase like 2B)	no change	no change	-1.72	0.79	inactive
SLC27A2	no change	no change	-1.01	2.82	inactive
ANAPC11 (anaphase promoting complex subunit 11)	no change	no change	-0.76	-0.01	inactive
OGN (osteoglycin)	no change	no change	-0.06	-1.02	inactive
CEP104 (centrosomal protein 104)	no change	no change	0.44	-0.66	inactive
METTL22 (methyltransferase 22, Kin17 lysine)	no change	no change	0.05	0.48	inactive
SLC24A2	no change	no change	0.7	-0.4	inactive
COXFA4L3 (cytochrome c oxidase associated subunit FA4L3)	no change	no change	-2.49	-0.83	inactive
CPSF3 (cleavage and polyadenylation specific factor 3)	no change	no change	-1.11	-1.1	inactive
ABL1 (ABL proto-oncogene 1, non-receptor tyrosine kinase)	no change	no change	1.04	0.79	inactive
COPZ1 (coat protein complex I subunit zeta 1)	no change	no change	-3.11	0.06	inactive
ANGPTL5 (angiopoietin like 5)	no change	no change	0.52	-0.8	inactive
TSC22D3 (TSC22 domain family member 3)	no change	no change	-0.29	-0.5	inactive
KCNA7 (potassium voltage-gated channel subfamily A member 7)	no change	no change	-0.19	-1.14	inactive
CACNG8 (calcium voltage-gated channel auxiliary subunit gamma 8)	no change	no change	0.68	-0.8	inactive
BRF2 (BRF2 general transcription factor IIIB subunit)	no change	no change	0.62	0.28	inactive
CYP2C9 (cytochrome P450 family 2 subfamily C member 9)	no change	no change	0.1	-0.9	inactive
TMEM11 (transmembrane protein 11)	no change	no change	-1.93	0.38	inactive
SPO11 (SPO11 initiator of meiotic double strand breaks)	no change	no change	-0.98	-0.33	inactive
GJA5 (gap junction protein alpha 5)	no change	no change	0.64	0.18	inactive
SAA4 (serum amyloid A4, constitutive)	no change	no change	-0.09	-0.39	inactive
TNFSF14 (TNF superfamily member 14)	no change	no change	-0.79	1.07	inactive
C11orf40 (chromosome 11 putative open reading frame 40)	no change	no change	0.06	0.57	inactive

Next part; the last 3 above are carried over.
target	viability hit class	caspase hit class	viability robust z-score	caspase robust z-score	call
SAA4 (serum amyloid A4, constitutive)	no change	no change	-0.09	-0.39	inactive
TNFSF14 (TNF superfamily member 14)	no change	no change	-0.79	1.07	inactive
C11orf40 (chromosome 11 putative open reading frame 40)	no change	no change	0.06	0.57	inactive
ATG9A (autophagy related 9A)	no change	no change	-0.43	1.72	inactive
XAGE2 (X antigen family member 2)	no change	no change	-2.09	-1.42	inactive
HAT1 (histone acetyltransferase 1)	no change	no change	2.12	-0.14	inactive
TAF6 (TATA-box binding protein associated factor 6)	no change	no change	1.17	-0.16	inactive
INTS11 (integrator complex subunit 11)	no change	no change	1.08	-0.52	inactive
ECH1 (enoyl-CoA hydratase 1)	no change	no change	1.36	0.01	inactive
SVIL (supervillin)	no change	no change	-1.29	0.34	inactive
ACTL6B (actin like 6B)	no change	no change	-0.7	0.41	inactive
HELT (helt bHLH transcription factor)	no change	no change	1.57	-0.06	inactive
NKX2-8 (NK2 homeobox 8)	no change	no change	-0.18	0.26	inactive
RNF170 (ring finger protein 170)	no change	no change	-0.1	-0.15	inactive
PKLR (pyruvate kinase L/R)	no change	CA1 (caspase activation)	-0.74	6.45	active
WNT10A (Wnt family member 10A)	no change	no change	-0.31	-0.08	inactive
TNNT1 (troponin T1, slow skeletal type)	no change	no change	-0.25	-0.92	inactive
CDH15 (cadherin 15)	no change	no change	0.2	5.06	inactive
RTF2 (replication termination factor 2)	no change	no change	1.17	0.07	inactive
FLT3 (fms related receptor tyrosine kinase 3)	no change	no change	0.76	0.35	inactive
SSX9P (SSX family member 9, pseudogene)	no change	no change	0.42	-0.26	inactive
TXNDC12 (thioredoxin domain containing 12)	no change	no change	-1.5	0.03	inactive
LIMS2 (LIM zinc finger domain containing 2)	no change	no change	1.04	1.86	inactive
REXO1L1P (REXO1 like 1, pseudogene)	no change	no change	0.86	-0.8	inactive
SNX17 (sorting nexin 17)	no change	no change	0.24	-0.04	inactive
PLPP1 (phospholipid phosphatase 1)	no change	no change	-2.08	1.11	inactive
ANKRD2 (ankyrin repeat domain 2)	no change	no change	-0.96	3.34	inactive
